In PubChem BioAssay AID2685 (National Center for Advancing Translational Sciences (NCATS), 2010):
The other results are listed elsewhere or left out. Shown are side measurements of this screen, not its main read-out; they come without a call. Compounds called inactive in the main read-out are mostly missing here. Potencies come from curve fits of mixed quality, noted in brackets.

Assay: qHTS Assay for Lipid Storage Modulators in Drosophila S3 Cells;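 on cell number change: cells counted by Cell Tracker Red CMTPX staining in the red channel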
Conditions: BODIPY lipid droplet fluorescence, 18-24 h; for cell number change: measured here: cell count max response, cells fed with added oleic acid
How it was run: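 Drosophila S3 cells loaded with oleic acid (400 uM, as added) and compounds at several concentrations; lipid droplets imaged by 488-nm laser-scanning cytometry, 500–530 nm intensity and object ratio to cell channel. Percent activity normalized to 20 uM Triacsin C.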

[1] = measured here: cell number channel AC50, cells fed with added oleic acid
[2] = measured here: lipid fluorescence (Fed channel) AC50, cells fed with added oleic acid

Row | SMILES | cell number change [%] | AC50 [1] | AC50 [2]
1 | CCOC(=O)C1=C(C)N(c2ccc(OC)cc2)C(=O)/C1=C\c1ccc(O)c(OCC)c1 | -65.7 | 18.4 µM [falling, partial curve] | 1.84 µM [falling, full curve]
2 | COc1ccc(CCNC(=O)C2Cc3ccccc3C(=O)O2)cc1 (stereo not given) | -50.8 | – | 0.731 µM [rising, partial curve, poor fit]
3 | COc1cc(CC(=O)Nc2ncc(C)s2)cc(OC)c1OC | 220 | 8.2 µM [rising, partial curve] | 0.291 µM [rising, full curve]
4 | COc1ccc(C)cc1NS(=O)(=O)c1ccc2c(c1)NC(=O)C(C)S2 (stereo not given) | -22.2 | – | –
5 | COc1ccc([C@H]2CC(=O)C=C(c3ccc(-c4ccccc4)c(F)c3)C2)cc1OC | 11.4 | – | 13 µM [rising, single point]
6 | COc1ccc(C(=O)NCCN2CCOCC2)c(OC)c1 | -8.7 | 6.51 µM [rising, single point] | 29.1 µM [rising, single point]
7 | Cc1ccc2nc(-c3cccc(NC(=O)c4ccc5c(c4)OCCO5)c3)oc2c1 | 9.91 | – | 11.6 µM [rising, single point]
8 | O=C(O)C1CCCN1S(=O)(=O)c1cccs1 (stereo not given) | -70.6 | 29.1 µM [falling, single point] | –
9 | CCn1c(CNC(=O)C23CC4CC(CC(C4)C2)C3)nnc1SC | 7.63 | – | 1.84 µM [rising, single point]
10 | CCOC(=O)c1c(NC(=O)c2ccco2)sc2c1CCCC2 | 2.25 | – | 0.82 µM [rising, single point]
11 | O=C(O)c1cccc(NC(=S)NC(=O)c2ccc(-c3ccc(Cl)cc3)o2)c1 | 8.8 | 3.26 µM [falling, single point] | 3.26 µM [falling, single point]
12 | O=C(CSc1ccc2ccccc2n1)N/N=C/c1ccc(O)cc1 | -29.5 | – | 16.4 µM [falling, single point]
13 | CCC(=O)Nc1c(C)c(CC)nc2ccccc12 | -51 | 10.3 µM [falling, partial curve] | –
14 | Cc1ccc(C(=O)OCc2nc3ccsc3c(=O)[nH]2)o1 | – | – | 0.58 µM [rising, single point]
15 | O=C(CCCOc1ccccc1)Nc1cc(S(=O)(=O)N2CCOCC2)ccc1N1CCOCC1 | 6.55 | – | 0.291 µM [falling, full curve, poor fit]
16 | COc1ccc(CNC(=O)c2ccc(N(C)S(=O)(=O)c3ccc(C)cc3)cc2)cc1 | -24.6 | – | –
17 | Nc1nc(CSc2ncn(-c3ccccc3)n2)cs1 | 8.43 | – | 1.64 µM [rising, partial curve]
18 | CC(C)CCNc1nnnc2c1sc1nc(N3CCOCC3)c3c(c12)CC(C)(C)SC3 | 4.7 | – | 0.206 µM [rising, full curve, poor fit]
19 | FC(F)Sc1ccc(NC(=S)N2CCN(c3ccccn3)CC2)cc1 | 18.1 | – | 1.84 µM [rising, full curve]
20 | CN1CCN(NC(=O)c2ccc(Cl)s2)CC1 | – | – | 0.58 µM [rising, single point]

Complete entries as entered above:
COc1ccc([C@H]2CC(=O)C=C(c3ccc(-c4ccccc4)c(F)c3)C2)cc1OC as listed: cell number change [%]: 11.4; AC50 [2]: 13 µM [rising, single point]
O=C(CCCOc1ccccc1)Nc1cc(S(=O)(=O)N2CCOCC2)ccc1N1CCOCC1 as listed: cell number change [%]: 6.55; AC50 [2]: 0.291 µM [falling, full curve, poor fit]

Further results.

Row | SMILES | cell number change [%] | AC50 [1] | AC50 [2]
21 | O=C(Nc1cc(C(F)(F)F)ccc1-n1cncn1)c1ccc(-c2ccccc2)cc1 | -18.3 | – | 32.6 µM [falling, single point]
22 | O=C(Nc1ccc2c(c1)OCO2)c1ccc(S(=O)(=O)NCC2CCCO2)cc1 (stereo not given) | 8.2 | – | –
23 | COc1ccc(CN2C[C@H](Cc3ccccc3)[C@@H](CC(=O)Nc3ccccc3)C2=O)cc1 | -7.19 | – | 0.651 µM [falling, full curve, poor fit]
24 | COc1cc(/C=C/C(=O)OCC(=O)NCCc2ccc(S(N)(=O)=O)cc2)ccc1OCC#N | 27.3 | – | –
25 | COC(=O)Cn1c(=O)c2c(nc3n2CCCN3CCc2ccc(OC)c(OC)c2)n(C)c1=O | -1.55 | – | 0.0082 µM [rising, full curve, poor fit]
26 | O=C(NC(=S)NCCC1=CCCCC1)c1ccccc1Br | 14.8 | – | 5.8 µM [rising, partial curve, poor fit]
27 | O=C(Cc1ccccc1)NCC(=O)OCC(=O)c1ccc(Cl)c([N+](=O)[O-])c1 | -26.4 | – | –
28 | Cc1ccc(NCc2ccccc2F)cc1 | -5.9 | – | 6.51 µM [falling, single point]
29 | Cc1ccc(S(=O)(=O)N2CCCC2C(=O)OCc2ccco2)cc1 (stereo not given) | 4.19 | – | 16.4 µM [rising, partial curve, poor fit]
30 | COc1cc(O)c(CCC(=O)c2cc(OC)c(OC)c(OC)c2)c(OC)c1 | 20.8 | – | 20.6 µM [rising, single point]
31 | Cc1ccc(C(=O)NCC(=O)NCC(=O)OCC(=O)c2ccc([N+](=O)[O-])cc2)cc1 | -6.51 | – | –
32 | O=C(NCCCSc1ccccc1)c1cccnc1 | 14.1 | – | 0.103 µM [falling, full curve, poor fit]
33 | CC(C)(C)n1cnc2cc(NS(=O)(=O)c3ccccc3)ccc21 | -3.03 | – | 2.31 µM [rising, partial curve]
34 | CCCCCC(=O)NC(=S)Nc1cccc(-c2nc3ncccc3o2)c1 | 15.9 | – | 29.1 µM [rising, single point]
35 | CN(Cc1ccccc1)c1nc2c(c(=O)[nH]c(=O)n2C)n1Cc1ccccc1 | 18.1 | – | 4.11 µM [rising, full curve]
36 | COc1ccc(-c2nc(-c3ccccc3)c(-c3cc([N+](=O)[O-])ccc3C)[nH]2)cc1OC | 19.4 | 0.259 µM [rising, full curve, poor fit] | –
37 | O=C(CN(C1CCCCC1)S(=O)(=O)c1ccc(Br)cc1)NCc1ccncc1 | -36.9 | 6.51 µM [falling, partial curve, poor fit] | –
38 | COc1ccccc1NC(=O)N(Cc1cc2cc(OC)c(OC)cc2[nH]c1=O)CC1CCCO1 (stereo not given) | 18.8 | – | 1.46 µM [rising, full curve]
39 | O=C(Nc1nnc(Cc2ccccc2)s1)c1ccco1 | -38.4 | 4.61 µM [falling, full curve] | 6.51 µM [falling, single point]
